Measured values published in article PMC7618776, “Direct recruitment of Mis18 to interphase spindle pole bodies promotes CENP-A chromatin assembly” (Current biology : CB, 2023).
Results are given in words; binding and its absence hold for the method and conditions named. In cells and extracts the contact can be indirect. A yes stands for co-enrichment or nearness to the bait. Other partners may have been found. For part of these data: A no says only that the protein was not detected with the bait. For part of these data: Sequences can lack the tags named with a protein.

Protein sequences, listed by entry. Tags and fused reporters are not part of them.
UniProt O74539: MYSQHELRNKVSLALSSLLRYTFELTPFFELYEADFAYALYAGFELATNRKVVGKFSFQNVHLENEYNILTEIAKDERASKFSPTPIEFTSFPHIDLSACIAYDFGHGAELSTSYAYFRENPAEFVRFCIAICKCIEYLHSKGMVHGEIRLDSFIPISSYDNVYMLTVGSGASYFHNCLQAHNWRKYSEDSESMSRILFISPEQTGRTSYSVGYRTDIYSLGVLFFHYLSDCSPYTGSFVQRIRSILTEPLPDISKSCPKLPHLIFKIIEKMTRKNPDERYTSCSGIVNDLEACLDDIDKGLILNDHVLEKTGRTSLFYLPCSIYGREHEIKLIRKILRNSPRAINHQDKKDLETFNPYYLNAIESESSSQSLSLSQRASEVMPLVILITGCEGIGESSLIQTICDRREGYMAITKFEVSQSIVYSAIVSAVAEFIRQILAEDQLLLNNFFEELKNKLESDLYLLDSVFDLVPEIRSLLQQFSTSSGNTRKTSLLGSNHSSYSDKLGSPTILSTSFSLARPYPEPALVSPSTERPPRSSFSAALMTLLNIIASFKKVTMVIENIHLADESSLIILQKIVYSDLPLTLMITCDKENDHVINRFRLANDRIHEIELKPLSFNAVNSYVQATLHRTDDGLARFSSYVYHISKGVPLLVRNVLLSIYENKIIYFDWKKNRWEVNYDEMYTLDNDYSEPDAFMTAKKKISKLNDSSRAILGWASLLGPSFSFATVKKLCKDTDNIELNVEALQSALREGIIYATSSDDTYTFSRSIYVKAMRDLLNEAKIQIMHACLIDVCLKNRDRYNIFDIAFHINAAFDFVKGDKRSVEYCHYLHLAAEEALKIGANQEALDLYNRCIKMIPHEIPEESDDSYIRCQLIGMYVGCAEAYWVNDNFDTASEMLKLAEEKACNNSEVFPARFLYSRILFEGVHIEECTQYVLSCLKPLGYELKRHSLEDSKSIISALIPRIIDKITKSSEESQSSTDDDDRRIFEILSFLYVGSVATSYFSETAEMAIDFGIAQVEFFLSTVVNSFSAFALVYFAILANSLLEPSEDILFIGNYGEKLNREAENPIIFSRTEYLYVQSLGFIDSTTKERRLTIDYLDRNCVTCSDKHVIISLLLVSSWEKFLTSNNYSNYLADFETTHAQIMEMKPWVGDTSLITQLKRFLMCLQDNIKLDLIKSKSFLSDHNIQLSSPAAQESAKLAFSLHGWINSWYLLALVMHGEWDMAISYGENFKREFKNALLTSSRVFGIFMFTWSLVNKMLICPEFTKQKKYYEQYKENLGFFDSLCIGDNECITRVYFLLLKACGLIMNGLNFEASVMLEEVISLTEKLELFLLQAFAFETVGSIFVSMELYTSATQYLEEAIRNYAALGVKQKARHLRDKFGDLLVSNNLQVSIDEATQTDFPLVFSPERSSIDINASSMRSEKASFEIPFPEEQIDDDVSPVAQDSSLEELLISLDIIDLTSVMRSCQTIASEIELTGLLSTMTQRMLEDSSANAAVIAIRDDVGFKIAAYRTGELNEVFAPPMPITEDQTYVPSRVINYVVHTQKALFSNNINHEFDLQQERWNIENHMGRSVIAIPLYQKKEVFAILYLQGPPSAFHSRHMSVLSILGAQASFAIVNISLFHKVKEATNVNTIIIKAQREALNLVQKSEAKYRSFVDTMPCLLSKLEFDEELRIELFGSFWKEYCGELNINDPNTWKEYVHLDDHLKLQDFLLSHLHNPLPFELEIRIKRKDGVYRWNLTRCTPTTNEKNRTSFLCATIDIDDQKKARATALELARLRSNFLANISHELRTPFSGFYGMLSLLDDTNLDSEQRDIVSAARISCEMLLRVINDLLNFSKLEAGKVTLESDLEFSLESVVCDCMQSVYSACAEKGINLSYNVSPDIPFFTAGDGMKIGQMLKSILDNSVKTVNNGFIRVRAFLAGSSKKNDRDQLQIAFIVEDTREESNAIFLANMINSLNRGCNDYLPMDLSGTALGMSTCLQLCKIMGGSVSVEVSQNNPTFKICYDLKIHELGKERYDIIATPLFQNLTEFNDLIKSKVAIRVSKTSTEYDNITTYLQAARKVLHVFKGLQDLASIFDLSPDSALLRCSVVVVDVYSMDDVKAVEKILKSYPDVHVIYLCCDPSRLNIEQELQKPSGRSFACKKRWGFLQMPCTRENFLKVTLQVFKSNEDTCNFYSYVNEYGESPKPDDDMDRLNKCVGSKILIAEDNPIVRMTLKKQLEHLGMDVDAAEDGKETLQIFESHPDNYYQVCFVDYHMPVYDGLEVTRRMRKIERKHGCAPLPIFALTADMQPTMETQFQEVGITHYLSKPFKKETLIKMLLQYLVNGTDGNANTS

Key:
[1] = molecular target: Sad1-3V5 (C-terminally 3xV5-tagged Sad1) (S. pombe) (UniProt Q09825); assay: affinity purification with mass spectrometry; anti-V5 IP (antibody cross-linked to Protein G Dynabeads) of Sad1-3V5 or Sad1-4A-3V5 from S. pombe cell extracts, label-free quantitative MS of triplicate IPs, compared with untagged control or wild-type Sad1-3V5 IPs; wild-type, csi1Δ, lem2Δ and csi1Δlem2Δ cells; SPB lysis buffer (25 mM HEPES, 150 mM KCl, 2 mM MgCl2, 0.5% Triton-X 100, 10% glycerol, 1 mM DTT), benzonase, 4°C 2 hrs
[2] = molecular target: T1, Sad1-3V5 (C-terminally 3xV5-tagged Sad1) (S. pombe), Q09825; assay: affinity purification with mass spectrometry; anti-V5 IP (antibody cross-linked to Protein G Dynabeads) of Sad1-3V5 or Sad1-4A-3V5 from S. pombe cell extracts, label-free quantitative MS of triplicate IPs, compared with untagged control or wild-type Sad1-3V5 IPs; wild-type, csi1Δ, lem2Δ and csi1Δlem2Δ cells; SPB lysis buffer (25 mM HEPES, 150 mM KCl, 2 mM MgCl2, 0.5% Triton-X 100, 10% glycerol, 1 mM DTT), benzonase, …; details: remark: other sources report otherwise
T1 chain: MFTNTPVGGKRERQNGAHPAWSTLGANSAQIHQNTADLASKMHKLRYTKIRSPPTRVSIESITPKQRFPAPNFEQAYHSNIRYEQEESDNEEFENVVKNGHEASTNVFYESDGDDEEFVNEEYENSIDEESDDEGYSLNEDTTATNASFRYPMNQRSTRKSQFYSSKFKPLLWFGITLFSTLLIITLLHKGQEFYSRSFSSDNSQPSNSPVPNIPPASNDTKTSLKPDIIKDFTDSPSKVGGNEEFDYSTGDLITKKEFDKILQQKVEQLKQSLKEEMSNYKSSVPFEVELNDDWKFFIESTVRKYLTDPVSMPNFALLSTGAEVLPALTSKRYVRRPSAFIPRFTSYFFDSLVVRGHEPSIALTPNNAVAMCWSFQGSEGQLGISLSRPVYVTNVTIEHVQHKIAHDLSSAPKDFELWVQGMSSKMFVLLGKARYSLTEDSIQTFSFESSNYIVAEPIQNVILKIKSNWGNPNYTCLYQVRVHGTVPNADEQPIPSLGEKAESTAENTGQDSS

[3] = molecular target: Sad1-4A-3V5 (S. pombe) (UniProt Q09825); assay: affinity purification with mass spectrometry; anti-V5 IP (antibody cross-linked to Protein G Dynabeads) of Sad1-3V5 or Sad1-4A-3V5 from S. pombe cell extracts, label-free quantitative MS of triplicate IPs, compared with untagged control or wild-type Sad1-3V5 IPs; wild-type, csi1Δ, lem2Δ and csi1Δlem2Δ cells; SPB lysis buffer (25 mM HEPES, 150 mM KCl, 2 mM MgCl2, 0.5% Triton-X 100, 10% glycerol, 1 mM DTT), benzonase, 4°C 2 hrs

## Mak3 (from UniProt O74539 1-2344)
[1]
  binding: no binding

B1: Ima1, O13681 1-615 (protein)
chain: MESSRLFTLGLGNSDDGLKSTFGDKTVTCFYCNKKKEKIRDGTSTWTCSICEATNHIDEKGDILDYRPPTPTQDKGVGPFYAIRDFPSSSSFQSPFCEKCQMNQLIVNRMLADYLPDSSHPDYQAYEKALPEYKKSIEEKFPIVCSECYDSVQDQLDANDYEAKNQVLGYWLQKSKEQLNAKVPHHYPKASFVLWLLRGFGFSFFYLQSIVWHLYHSMIISLLPDGIRNLFLKAISYFLLDGSSSKIFYFNWLGFFVVFWNPYWYKMMDNPSWELFGRDQYIQCQALYLIIRLTCLYLLSCYESEILNLSSDTNLESDFLLRQIHAAFFFVTICFTWISISCLKPSPPPEVHLTGEILKPRKKRQESTSSVHRIGKESSDRKDGISGQNKLQQFATISILNNTNATSHLGNQSVRERAPEESPMTFLQKKMAALPTSSPVRPMLKPTLQLQNSPLSKLVPQEVGNKVNDSIHTTSNQPSKFSLNPSISLKGDNVIEKNLPFSVSTLKSTAKKDTGKAGDGQNREIQNEPVSLESHFSKSLALQNDPTEVIQVKNVLHRNRRNAKLLIAFTILFLVGLICGWRLNRFTMFIYYLCILVLATYYVMKHNFYPLRKVA
[2]
  binding: binds

B2: Ima1 (protein, UniProt O13681 1-615)
chain: MESSRLFTLGLGNSDDGLKSTFGDKTVTCFYCNKKKEKIRDGTSTWTCSICEATNHIDEKGDILDYRPPTPTQDKGVGPFYAIRDFPSSSSFQSPFCEKCQMNQLIVNRMLADYLPDSSHPDYQAYEKALPEYKKSIEEKFPIVCSECYDSVQDQLDANDYEAKNQVLGYWLQKSKEQLNAKVPHHYPKASFVLWLLRGFGFSFFYLQSIVWHLYHSMIISLLPDGIRNLFLKAISYFLLDGSSSKIFYFNWLGFFVVFWNPYWYKMMDNPSWELFGRDQYIQCQALYLIIRLTCLYLLSCYESEILNLSSDTNLESDFLLRQIHAAFFFVTICFTWISISCLKPSPPPEVHLTGEILKPRKKRQESTSSVHRIGKESSDRKDGISGQNKLQQFATISILNNTNATSHLGNQSVRERAPEESPMTFLQKKMAALPTSSPVRPMLKPTLQLQNSPLSKLVPQEVGNKVNDSIHTTSNQPSKFSLNPSISLKGDNVIEKNLPFSVSTLKSTAKKDTGKAGDGQNREIQNEPVSLESHFSKSLALQNDPTEVIQVKNVLHRNRRNAKLLIAFTILFLVGLICGWRLNRFTMFIYYLCILVLATYYVMKHNFYPLRKVA
[3]
  binding: binds
